# PubChem BioAssay AID720710 | VTT Finland | 2013
# Purpose: 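Knock-downs that leave cyclin E-high cells sensitive to replication stress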 (primary screen)
# System: human U-2 OS bone cancer cells, parental and a cyclin E (CCNE1) overexpressing line
# Knock-down reagent: single siRNA against human genes, 1 µM siRNA in the printed spot mix
# Timing: 67 h
# Challenge: half the arrays: hydroxyurea 2 mM for 16 h, then 3 h recovery; other arrays untreated
# Measured: 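DNA synthesis measured as imaged EdU uptake per nucleus (DAPI) at 67 h, normalised to subgrid median and given as z-score versus non-targeting controls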
# Reading the numbers: EdU z-score, cyclin E line, hydroxyurea and EdU z-score, parental, hydroxyurea and EdU z-score, cyclin E line, untreated and EdU z-score, parental, untreated: higher = more DNA synthesis than non-targeting controls
# Here is an unselected part of about 1,380 reagents. 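One array per condition without replicates; hydroxyurea arrays received 2 mM for 16 h plus 3 h recovery.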 Reagents against one gene are numbered here.
target gene,siRNA no.,"EdU z-score, cyclin E line, hydroxyurea","EdU z-score, parental, hydroxyurea","EdU z-score, cyclin E line, untreated","EdU z-score, parental, untreated"
UHRF1,1,-1.16,-1.64,-1.23,-0.398
UHRF1,2,-0.618,-1.21,-0.604,-0.388
POLM,1,-0.444,-0.697,-0.555,-2.83
POLM,2,0.25,2.31,0.0794,0.82
NONO,1,-1.74,1.18,-0.604,-1.43
NONO,2,1.51,4.01,1.36,-0.572
TERF2IP,1,-0.543,-1.2,-1.68,-3.11
TERF2IP,2,0.648,4.4,-1.47,-2.98
CBX5,1,1.6,1.97,-0.883,-2.27
CBX5,2,2.76,2.6,-0.732,0.0408
GINS1,1,1.2,-6.84,-1.05,-0.555
GINS1,2,2.81,-2.08,-0.959,0.913
SIRT7,1,-1.89,0.215,-2.17,-2.07
SIRT7,2,-1.57,3.07,-0.176,0.132
RSF1,1,-3.42,0.573,-0.718,-1.6
RSF1,2,-2.36,6.86,0.102,-1.02
HMGB1,1,0.0689,-1.82,-2.89,-0.553
HMGB1,2,1.57,-0.192,-2.18,1.16
XRCC5,1,-1.15,-1.14,-0.904,-0.0276
XRCC5,2,-0.228,0.401,1.98,0.271
DNTT,1,0.0755,-2.95,-0.87,-2.01
DNTT,2,0.858,0.61,0.494,-1.29
DYRK2,1,-1.06,-0.652,0.53,0.258
DYRK2,2,-0.816,1.76,0.899,3.99
WDR33,1,-0.439,-0.989,-4.5,-2.5
WDR33,2,0.347,-0.0765,-1.09,-0.185
NAP1L2,1,0.279,-0.837,-1.05,-2.66
NAP1L2,2,0.826,0.243,-0.134,-1.11
RFC2,1,-0.14,-4.35,-1.91,-1.25
RFC2,2,0.52,0.301,-0.903,-0.108
SOX2,1,-2.79,-1.05,-0.82,-1.61
SOX2,2,1.66,1.32,0.249,0.16
RUVBL2,1,0.118,2.32,-1.13,-1.58
RUVBL2,2,0.398,3.42,0.0448,-0.288
NFIB,1,1.04,-1.52,-0.505,-0.801
NFIB,2,1.94,2.43,1.37,0.92
H4C16,1,-2.64,-1.37,-0.698,-0.213
H4C16,2,0.82,0.548,0.187,0.675
H2BC6,1,-0.665,-1.08,-1.64,-0.361
H2BC6,2,1.2,3.84,-0.444,0.474
XRCC1,1,-0.0449,-0.631,-2.27,-0.737
XRCC1,2,1.68,0.056,-0.0568,0.747
H4C9,1,-0.442,-1.67,-0.567,-0.876
H4C9,2,0.657,0.249,-0.168,0.851
SETD4,1,-0.766,1.03,-3.13,-1.36
SETD4,2,0.0291,1.72,-1.7,-0.201
PRDM8,1,-1.54,-0.305,-2.23,-0.798
PRDM8,2,0.771,0.201,-0.562,2.94
ASF1A,1,-1.97,-0.79,-7.84,-0.33
ASF1A,2,0.972,2.19,-0.588,0.482
NHEJ1,1,-0.414,-0.509,-0.436,-0.85
NHEJ1,2,1.34,0.506,0.36,0.024
SETDB2,1,-0.184,-0.243,-0.343,-0.812
SETDB2,2,2.53,3.53,-0.0662,1.42
TSPYL2,1,0.36,1.8,-1.1,-0.751
TSPYL2,2,0.867,2.6,-0.771,1.34
PRIM1,1,-2.38,-0.653,-1.25,-0.273
PRIM1,2,0.16,2.08,0.0729,1.52

Records listed so far whose gene name begins with X or x (4):
target gene,siRNA no.,"EdU z-score, cyclin E line, hydroxyurea","EdU z-score, parental, hydroxyurea","EdU z-score, cyclin E line, untreated","EdU z-score, parental, untreated"
XRCC5,1,-1.15,-1.14,-0.904,-0.0276
XRCC5,2,-0.228,0.401,1.98,0.271
XRCC1,1,-0.0449,-0.631,-2.27,-0.737
XRCC1,2,1.68,0.056,-0.0568,0.747
